Source: PubChem BioAssay AID1259425 (University of Nebraska Medical Center, 2018)

Aim: 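Compare each knockdown with KSR1 silencing using changes in marker transcripts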 (primary screen)
System: HCT116 human colon cancer cells
Reagent: siRNA pool against human genes, 50 nM siRNA
Detection: 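mRNA of six signature genes measured together by branched-DNA assay after 50 nM siRNA pool, blank removed, divided by geometric mean of two housekeeping genes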
Scale: BNIP3L mRNA: higher = more BNIP3L transcript after knockdown; NDRG1 mRNA: higher = more NDRG1 transcript after knockdown; BNIP3 mRNA: higher = more BNIP3 transcript after knockdown; ALDOC mRNA: higher = more ALDOC transcript after knockdown; ACSL5 mRNA: higher = more ACSL5 transcript after knockdown
The whole screen tested about 14,000 reagents; shown is a part drawn at random. The record does not give: the time to read-out.

gene symbol | PubChem SID | BNIP3L mRNA, set 1 | NDRG1 mRNA, set 1 | BNIP3 mRNA, set 1 | ALDOC mRNA, set 1 | ACSL5 mRNA, set 1
MRPS18A | SID364000811 | 0.144 | 0.317 | 0.29 | 0.0233 | 0.311
AMELY | SID363992435 | 0.0855 | 0.135 | 0.208 | 0.0301 | 0.0672
EDA2R | SID364002176 | 0.0717 | 0.357 | 0.251 | 0.0107 | 0.135
ROR1 | SID363995951 | 0.0777 | 0.194 | 0.198 | 0.00429 | 0.334
TRPV1 | SID364001208 | 0.0972 | 0.157 | 0.172 | 0.0131 | 0.0677
CTSG | SID363993124 | 0.0593 | 0.149 | 0.348 | 0.011 | 0.187
HPX | SID363991931 | 0.0427 | 0.137 | 0.356 | 0.00889 | 0.104
KCNH8 | SID364004621 | 0.0891 | 0.109 | 0.207 | 0.0172 | 0.16
ZNF574 | SID364002527 | 0.104 | 1.16 | 0.392 | 0.0259 | 0.155
IL1R1 | SID363992164 | 0.134 | 0.504 | 0.231 | 0.0256 | 0.258
SESN1 | SID363998867 | 0.223 | 0.287 | 0.334 | 0.0633 | 0.178
MRPS22 | SID364001544 | 0.125 | 0.157 | 0.344 | 0.0311 | 0.395
FAM174C | SID364000639 | 0.186 | 0.381 | 0.409 | 0.0563 | 0.245
SAMD9 | SID364000421 | 0.0849 | 0.262 | 0.32 | 0.0465 | 0.155
DCXR | SID364000008 | 0.093 | 0.799 | 0.21 | 0.0192 | 0.343
COPZ2 | SID364000101 | 0.247 | 0.32 | 0.324 | 0.0217 | 0.368
RNPEP | SID364001567 | 0.0443 | 0.0849 | 0.259 | 0.00862 | 0.105
TSHZ1 | SID363996665 | 0.188 | 0.2 | 0.501 | 0.0642 | 0.216
GDI2 | SID363992752 | 0.0607 | 0.0722 | 0.185 | 0.0403 | 0.0849
TMC6 | SID363997956 | 0.162 | 0.124 | 0.338 | 0.0269 | 0.223
CHD3 | SID363996726 | 0.0507 | 0.0618 | 0.197 | 0.0163 | 0.0861
CXCR5 | SID363992937 | 0.153 | 0.229 | 0.344 | 0.0216 | 0.132
F13B | SID363993206 | 0.0847 | 0.246 | 0.278 | 0.0227 | 0.123
NDP | SID363991599 | 0.146 | 0.322 | 0.274 | 0.0797 | 0.202
CHRD | SID363994808 | 0.102 | 0.223 | 0.374 | 0.021 | 0.0794
KCTD16 | SID364005283 | 0.13 | 0.295 | 0.285 | 0.0468 | 0.259
USP35 | SID364005337 | 0.0732 | 0.0863 | 0.167 | 0.0166 | 0.137
CST5 | SID363993113 | 0.152 | 0.241 | 0.501 | 0.0409 | 0.279
TUG1 | SID364000628 | 0.589 | 2.94 | 2.53 | 0.273 | 0.107
KNDC1 | SID364004373 | 0.083 | 0.188 | 0.243 | 0.0263 | 0.23
CCDC71 | SID364002595 | 0.048 | 0.149 | 0.209 | 0.0419 | 0.121
AJAP1 | SID364001212 | 0.139 | 0.302 | 0.378 | 0.0514 | 0.282
UBE3B | SID364004514 | 0.0827 | 0.13 | 0.294 | 0.0349 | 0.144
KRTAP5-8 | SID364001973 | 0.202 | 0.143 | 0.385 | 0.0958 | 0.183
SLC16A4 | SID363995656 | 0.111 | 0.374 | 0.38 | 0.0267 | 0.304
STOML1 | SID363995763 | 0.105 | 0.269 | 0.311 | 0.0208 | 0.288
SLC10A2 | SID363991783 | 0.136 | 0.292 | 0.203 | 0.0187 | 0.129
AP1G1 | SID363992421 | 0.0575 | 0.173 | 0.231 | 0.0369 | 0.148
LRRC4C | SID364005171 | 0.119 | 0.27 | 0.325 | 0.0319 | 0.178
MINPP1 | SID363995846 | 0.0674 | 0.111 | 0.24 | 0.0128 | 0.104
CYFIP2 | SID363998799 | 0.109 | 0.156 | 0.32 | 0.0659 | 0.133
DNAJC30 | SID364003903 | 0.176 | 0.345 | 0.294 | 0.101 | 0.372
HLA-DOA | SID363993325 | 0.0545 | 0.111 | 0.259 | 0.0176 | 0.0926
HADHB | SID363991519 | 0.129 | 0.264 | 0.215 | 0.021 | 0.305
MYLIP | SID363998386 | 0.134 | 0.141 | 0.386 | 0.0343 | 0.166
TOB1 | SID363996633 | 0.0481 | 0.0477 | 0.13 | 0.0113 | 0.126
CTDSPL | SID363996686 | 0.17 | 0.328 | 0.444 | 0.0568 | 0.11
MECOM | SID363995930 | 0.0991 | 0.125 | 0.249 | 0.00971 | 0.179
MECOM | SID363996162 | 0.118 | 0.225 | 0.299 | 0.0105 | 0.338
NDUFAF1 | SID363999793 | 0.0789 | 0.224 | 0.356 | 0.0197 | 0.155

Part of the list above in another layout.
{"gene symbol":"TUG1","PubChem SID":"SID364000628","BNIP3L mRNA, set 1":0.589,"NDRG1 mRNA, set 1":2.94,"BNIP3 mRNA, set 1":2.53,"ALDOC mRNA, set 1":0.273,"ACSL5 mRNA, set 1":0.107}
{"gene symbol":"KNDC1","PubChem SID":"SID364004373","BNIP3L mRNA, set 1":0.083,"NDRG1 mRNA, set 1":0.188,"BNIP3 mRNA, set 1":0.243,"ALDOC mRNA, set 1":0.0263,"ACSL5 mRNA, set 1":0.23}
{"gene symbol":"CCDC71","PubChem SID":"SID364002595","BNIP3L mRNA, set 1":0.048,"NDRG1 mRNA, set 1":0.149,"BNIP3 mRNA, set 1":0.209,"ALDOC mRNA, set 1":0.0419,"ACSL5 mRNA, set 1":0.121}
